PubChem BioAssay AID504791 | Drosophila RNAi Screening Center, 2011
Screen: 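Genes whose knock-down strengthens or weakens small-RNA reporter silencing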 (primary screen). Cell system: Drosophila S2-derived reporter cells. Reagent: long dsRNA against Drosophila genes, about 150-250 ng dsRNA per well (siRNA assay); about 80-120 ng (miRNA assay). Timing: about 5 days (siRNA assay); about 4 days (miRNA assay). Conditions: copper sulfate induction of reporters: 25 µM (siRNA assay); 200 mM stated (miRNA assay), 1-2 days before reading. Detection: 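Per-well ratio of Renilla over firefly light, expressed relative to that plate's average ratio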. Reading the numbers: siRNA reporter hit score: higher = 3 marks a strong hit with raised ratio; -3 a strong hit with lowered ratio. Units: stable assay Renilla, run 1 in luminescence; stable assay firefly, run 1 in luminescence. Hit rule: 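First-pass picks had plate-scaled ratios over 1.5 for the siRNA assay, over 1.6 for the miRNA assay, or under 0.6; two distinct dsRNAs had to score alike on retest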.
In all, the deposit lists about 23,000 reagents; shown is a random part of those that have a named target and a result. Of all reagents, 199 (0.86%) were called active. 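Plate-scaled ratios behind the calls are not deposited; printed light signals are raw; many rows marked increased or decreased are still called inactive.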 The numbers tell different reagents against one gene apart. Names joined by + are all predicted targets of the reagent. No sequences are given here.

The first 4 entries as a preview:
| predicted target | dsRNA no. | siRNA reporter hit score | stable siRNA reporter change | miRNA reporter change | stable assay Renilla, run 1 | stable assay firefly, run 1 | call |
| --- | --- | --- | --- | --- | --- | --- | --- |
| sxc | 1 | – | – | – | 5526 | 2.97e5 | inactive |
| Hsp60B | 1 | – | – | – | 19555 | 1.38e5 | inactive |
| CG7607 | 1 | – | – | – | 6228 | 4.30e5 | inactive |
| car | 1 | – | – | – | 6970 | 5.88e5 | inactive |

The listing, from the first entry:
| predicted target | dsRNA no. | siRNA reporter hit score | stable siRNA reporter change | miRNA reporter change | stable assay Renilla, run 1 | stable assay firefly, run 1 | call |
| --- | --- | --- | --- | --- | --- | --- | --- |
| sxc | 1 | – | – | – | 5526 | 2.97e5 | inactive |
| Hsp60B | 1 | – | – | – | 19555 | 1.38e5 | inactive |
| CG7607 | 1 | – | – | – | 6228 | 4.30e5 | inactive |
| car | 1 | – | – | – | 6970 | 5.88e5 | inactive |
| Oscillin | 1 | – | – | – | 23257 | 3.25e5 | inactive |
| CG42534 | 1 | – | – | – | 5994 | 3.04e5 | inactive |
| CG42534 | 2 | – | – | – | 5116 | 2.37e5 | inactive |
| CG42534 | 3 | – | – | – | 6315 | 3.23e5 | inactive |
| CG42534 | 4 | – | – | – | 4695 | 3.47e5 | inactive |
| CG42534 | 5 | – | – | – | 5231 | 2.99e5 | inactive |
| CG6836 | 1 | – | – | – | 10156 | 4.31e5 | inactive |
| dgo | 1 | – | – | – | 7895 | 3.60e5 | inactive |
| Eph | 1 | – | – | – | 6715 | 4.30e5 | inactive |
| CycJ | 1 | – | – | – | 7998 | 5.50e5 | inactive |
| GstD8 | 1 | – | reporter ratio raised past the hit cutoff | reporter ratio raised past the hit cutoff | 9487 | 3.47e5 | inactive |
| alpha-Est3 | 1 | – | – | – | 7718 | 4.46e5 | inactive |
| CaBP1 | 1 | – | – | – | 28135 | 1.24e6 | inactive |
| CG10208 | 1 | – | – | – | 8374 | 3.80e5 | inactive |
| ZC3H3 | 1 | – | – | – | 4896 | 3.05e5 | inactive |
| Brf | 1 | – | – | – | 5467 | 5.11e5 | inactive |
| Brf | 2 | – | – | – | 5300 | 3.15e5 | inactive |
| Brf | 3 | – | – | – | 5782 | 3.59e5 | inactive |
| JYalpha (retired record) + JYalpha | 1 | – | – | – | 9327 | 4.84e5 | inactive |
| Trxr1 | 1 | – | – | – | 7092 | 5.15e5 | inactive |
| Trxr1 | 2 | – | – | – | 8807 | 5.17e5 | inactive |
| Vps13 | 1 | – | – | – | 6522 | 2.48e5 | inactive |
| CG31848 | 1 | – | – | – | 5486 | 4.28e5 | inactive |
| CG6276 | 1 | – | – | – | 7715 | 3.50e5 | inactive |
| CtsL4 | 1 | – | – | – | 6979 | 2.92e5 | inactive |
| dap | 1 | – | – | – | 7871 | 3.13e5 | inactive |
| dind | 1 | – | – | – | 10604 | 5.43e5 | inactive |
| CG2701 | 1 | – | – | – | 8754 | 3.61e5 | inactive |
| Or74a | 1 | – | – | – | 7592 | 4.17e5 | inactive |
| Pka-C3 | 1 | – | – | – | 5587 | 4.57e5 | inactive |
| Pka-C3 | 2 | – | – | reporter ratio raised past the hit cutoff | 10589 | 4.67e5 | inactive |
| CG5439 | 1 | – | – | – | 23939 | 4.70e5 | inactive |
| betaNACtes1 | 1 | – | – | – | 4900 | 5.19e5 | inactive |
| CG13579 | 1 | – | – | – | 7048 | 4.35e5 | inactive |
| CG5246 | 1 | – | – | – | 6699 | 3.68e5 | inactive |
| CG8728 | 1 | – | reporter ratio raised past the hit cutoff | – | 50124 | 6.23e5 | inactive |
| slp2 | 1 | – | – | – | 6948 | 3.47e5 | inactive |
| elav | 1 | – | – | – | 8820 | 4.14e5 | inactive |
| TwdlN | 1 | – | – | – | 6611 | 5.34e5 | inactive |
| salm | 1 | – | – | – | 7278 | 4.05e5 | inactive |
| E(spl)mgamma-HLH | 1 | – | – | – | 7648 | 4.29e5 | inactive |
| CG15576 | 1 | – | – | – | 4231 | 3.08e5 | inactive |
| CG14598 | 1 | – | – | – | 6727 | 4.24e5 | inactive |
| Cyp6w1 | 1 | – | – | – | 22936 | 1.42e6 | inactive |
| CG34324 | 1 | – | – | – | 4812 | 3.83e5 | inactive |
| CG34324 | 2 | – | – | – | 5064 | 3.60e5 | inactive |
| Wnt4 | 1 | – | – | – | 4619 | 4.20e5 | inactive |
| Wnt4 | 2 | – | – | – | 6906 | 3.86e5 | inactive |
| Acat1 | 1 | – | – | – | 7022 | 3.22e5 | inactive |
| Amy-d | 1 | – | – | – | 6127 | 2.82e5 | inactive |
| LKRSDH | 1 | – | – | – | 14908 | 8.99e5 | inactive |
| CG16903 | 1 | – | – | – | 7963 | 3.78e5 | inactive |
| CG17050 (retired record) | 1 | – | – | – | 5696 | 3.39e5 | inactive |
| CG15468 | 1 | – | – | – | 6115 | 3.37e5 | inactive |
| CG13786 | 1 | – | – | – | 6666 | 3.91e5 | inactive |
| wntD | 1 | – | – | – | 7639 | 4.28e5 | inactive |
| Ance-3 | 1 | – | – | – | 7259 | 4.55e5 | inactive |
| Ance-3 | 2 | – | – | – | 7423 | 5.01e5 | inactive |
| CG9014 | 1 | – | – | – | 6962 | 4.14e5 | inactive |
| CG13295 | 1 | – | – | – | 7760 | 5.53e5 | inactive |
| Prp5 | 1 | – | – | – | 5147 | 5.41e5 | inactive |
| dtn | 1 | – | – | – | 6450 | 2.80e5 | inactive |
| CG31999 | 1 | – | – | – | 6918 | 4.20e5 | inactive |
| CG31999 | 2 | – | – | – | 7179 | 3.93e5 | inactive |
| Spn75F | 1 | – | – | – | 5947 | 3.47e5 | inactive |
| und | 1 | – | – | – | 5231 | 5.69e5 | inactive |
| Prosbeta5 | 1 | – | reporter ratio raised past the hit cutoff | reporter ratio raised past the hit cutoff | 7803 | 1.73e5 | active |
| CG3776 | 1 | – | – | – | 62276 | 1.20e6 | inactive |
| nompC | 1 | – | – | – | 8204 | 5.51e5 | inactive |
| mura | 1 | – | – | – | 5275 | 2.56e5 | inactive |
| mura | 2 | – | reporter ratio raised past the hit cutoff | reporter ratio raised past the hit cutoff | 6359 | 1.76e5 | inactive |
| mura | 3 | – | – | – | 4392 | 2.96e5 | inactive |
| spn-F | 1 | – | – | – | 10115 | 4.58e5 | inactive |
| CG14853 | 1 | – | – | – | 3671 | 3.74e5 | inactive |
| CG14853 | 2 | – | – | – | 7520 | 4.23e5 | inactive |
| Calr | 1 | – | – | – | 6691 | 3.76e5 | inactive |
| Nna1 | 1 | – | – | – | 8123 | 6.38e5 | inactive |
| Raf | 1 | – | – | – | 4952 | 2.64e5 | inactive |
| Raf | 2 | – | – | – | 4500 | 2.51e5 | inactive |
| CG31058 (retired record) | 1 | – | – | – | 4679 | 2.31e5 | inactive |
| CG31058 (retired record) | 2 | – | – | – | 4015 | 3.20e5 | inactive |
| Prosbeta2R2 | 1 | – | – | – | 6883 | 4.83e5 | inactive |
| CG7737 | 1 | – | – | – | 8607 | 5.50e5 | inactive |
| CG42402 | 1 | – | – | – | 5767 | 3.51e5 | inactive |
| CG14052 | 1 | – | – | – | 4818 | 3.71e5 | inactive |
| CG14052 | 2 | -3 | – | – | 7468 | 4.47e5 | inactive |
| Uba1 | 1 | – | – | – | 9808 | 3.87e5 | inactive |
| CG18662 | 1 | – | – | – | 7742 | 3.98e5 | inactive |
| BubR1 | 1 | – | – | – | 6454 | 3.52e5 | inactive |
| PPO3 | 1 | – | – | – | 1.33e5 | 4.40e5 | inactive |
| Efr | 1 | – | – | – | 6640 | 2.70e5 | inactive |
| nub | 1 | – | – | – | 5488 | 5.78e5 | inactive |
| nub | 2 | – | – | – | 7419 | 4.15e5 | inactive |
| nub | 3 | – | – | – | 6084 | 3.61e5 | inactive |
| nub | 4 | – | reporter ratio raised past the hit cutoff | – | 7755 | 2.66e5 | inactive |
| nub | 5 | – | – | – | 5531 | 4.91e5 | inactive |
| Recs1 | 1 | – | – | – | 6654 | 5.41e5 | inactive |
| FucTC | 1 | – | – | – | 5751 | 4.17e5 | inactive |
| CG17612 | 1 | – | – | – | 33563 | 5.74e5 | inactive |
| mus302 | 1 | – | – | – | 6958 | 3.16e5 | inactive |
| CG7309 | 1 | – | – | – | 7055 | 3.85e5 | inactive |
| Osi15 | 1 | – | – | – | 5751 | 5.08e5 | inactive |
